Data: PubChem BioAssay AID2685 (National Center for Advancing Translational Sciences (NCATS), 2010)
In all, about 320,000 compounds went through this assay and about 2,100 (0.66%) were called active. The inconclusive results got no clear call from the source; some entries with a clear call stand among them for comparison. The call rests on the fitted dose curve; in most records, active means well fitted inhibition curve with a large enough effect in the signal ratio, with a control signal flat (not every such curve was filed as active); inconclusive means small, poorly fitted or top-dose-only effect, or effect the other way, or a change in a side signal; inactive means flat fitted curve, though single readings scatter; the % refers to the signal ratio. Where the call is inconclusive, the potency comes from a doubtful curve fit.

Assay: qHTS Assay for Lipid Storage Modulators in Drosophila S3 Cells
Settings: BODIPY lipid droplet fluorescence, 18-24 h, cells fed with added oleic acid; lipid storage change, negative = inhibition: at 46.1 µM (top of the series) unless noted
Method in brief: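 Laser-scanning cytometry quantifies lipid droplet accumulation (500–530 nm total intensity; droplet/cell object ratio) in oleic acid-fed (400 uM added) Drosophila S3 cells treated with a concentration series. 20 uM Triacsin C defined 100% inhibition.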
On the % scale 0 is the no-effect control and ±100 the full control effect; potency means the concentration at half of the fitted maximal effect.

Structure (SMILES)	lipid storage change, negative = inhibition	Potency
COc1ccc(S(=O)(=O)N2CCCC2CNC(=O)C(=O)NCc2ccc3c(c2)OCO3)cc1 (configuration not stated)	inconclusive	–
Cc1ccc(C(=O)NNC(=S)NC(=O)c2ccco2)cc1	inconclusive: -29.3%	–
O=C(Nc1ccc(F)cc1F)c1cccc(S(=O)(=O)N2CCCCC2)c1	inconclusive: 5.26%	–
O=c1[nH]c2cc3c(cc2cc1CN(Cc1cccnc1)Cc1nnnn1Cc1ccco1)OCCO3	–	inconclusive: 6.51 µM [activator, single point]
COC(=O)c1sc(NC(C)=O)c(C(=O)OC)c1C	–	inconclusive: 3.26 µM [activator, full curve, poor fit]
Cc1cc(N2CCN(S(=O)(=O)c3ccccc3)CC2)c2ccccc2n1	inconclusive: 18.2%	–
COc1ccc(Cn2c(-c3ccc(C)cc3)c[n+]3ccccc23)cc1	–	inconclusive: 25.9 µM [cytotoxic, single point]
CN1C(=O)N(C)C2C1NC(=O)N2C (configuration not stated)	–	inconclusive: 29.1 µM [activator, single point]
CCCSc1cc(=O)n(-c2ccccc2)nc1C(=O)O	inconclusive: -33.4%	–
CN1CCN(S(=O)(=O)c2ccc(SCCOc3ccccc3)nc2)CC1	inconclusive: -45.7%	–
CCOC(=O)c1c(C)nc2c(c1-c1ccc(OC)cc1)C(=O)CC(C)(C)C2	–	inconclusive: 3.66 µM [falling, partial curve, poor fit]
O=C(COc1ccc([N+](=O)[O-])cc1)NNC(=O)c1cccs1	–	inconclusive: 6.51 µM [falling, single point]
CCC(C)NC(=O)Cc1c(OC)ccc2cc(Br)ccc12 (configuration not stated)	inconclusive: -18.9%	–
CN(C(=O)c1ccco1)c1nc(-c2ccc(F)cc2)cs1	inconclusive: 30.9%	–
COc1cc(NC(=O)c2cccs2)c(C(=O)OCC(=O)c2cc(C)n(-c3ccc(F)cc3)c2C)cc1OC	–	inconclusive: 29.1 µM [activator, single point]
C=CCOc1ccc(Br)cc1CNC(C)(C)CO	–	inconclusive: 0.13 µM [cytotoxic, full curve, poor fit]
CCOC(=O)c1[nH]c2ccc(OCC)cc2c1CCCN1C(=O)c2ccccc2C1=O	inconclusive: 23.7%	–
CSc1nnc(CCNS(=O)(=O)c2ccc(Br)cc2)n1C	–	inconclusive: 20.6 µM [activator, single point]
CNC[C@H](Cc1ccccc1)NC[C@@H](Cc1cccc2ccccc12)NCCc1ccc(C)cc1	inconclusive: -98.1%	–
CCS(=O)(=O)N1CCN(Cc2nc3ccccc3c(=O)[nH]2)CC1	inconclusive: 47%	–
O=C(CN1C(=O)NC(Cc2ccccc2)C1=O)NC(=O)NC1CCCCC1 (configuration not stated)	inconclusive: -23.7%	–
COc1cccc(NC(=O)CN(C)C(=O)c2cc(-c3ccco3)nc3ccccc23)c1	–	inconclusive: 2.06 µM [activator, full curve]
COc1ccccc1C(=O)N=C1SC2CS(=O)(=O)CC2N1c1ccccc1 (configuration not stated)	–	inconclusive: 6.51 µM [activator, partial curve, poor fit]
CCC1=C(OC(=O)N(CC)CC)N2C(=O)OC(=NCCOC)[C@]2(Cc2ccccc2)[C@H]2C1=CC[C@H]1C(=O)NC(=O)[C@H]12	inconclusive: 10.4%	–

Structure (SMILES)	lipid storage change, negative = inhibition	Potency
CC(NC(=O)c1cc2sccc2n1C)c1ccc2c(c1)OCCO2 (configuration not stated)	–	inconclusive: 29.1 µM [rising, single point]
COc1ccc(F)cc1-c1nc(N)nc(N)n1	inconclusive: 72.7%	–
O=C(Cc1nnc(NC(=O)Nc2ccccc2F)s1)NCc1ccccc1	inconclusive: 15.2%	–
Cc1sc(NC(=O)c2ccccc2)c(C(=O)c2ccccc2)c1C	–	inconclusive: 0.58 µM [activator, full curve, poor fit]
O=C(NCc1ccccn1)C(=O)NCc1ccccn1	–	inconclusive: 0.461 µM [falling, single point]
O=C(Nc1ccc(NC(=O)C2CC2)nc1)c1ccccn1	inconclusive: -7.45%	–
CCOc1cc(C(=O)N2CCC(CC3CC(c4ccc(Cl)cc4)=NO3)(C(=O)NCC3CCCCC3)CC2)cc(OCC)c1OCC (configuration not stated)	–	inconclusive: 23.1 µM [falling, single point]
Cc1ccnc(NS(=O)(=O)c2ccc(Oc3ccccc3)cc2)c1	inconclusive: 264%	–
CN(C)C(CNC(=O)c1cc2ccccc2oc1=O)c1ccccc1 (configuration not stated)	–	inconclusive: 0.731 µM [activator, full curve, poor fit]
O=C(N[C@@H]1CCC(=O)N(CC[C@H](Oc2ccccc2)c2ccccc2)CC1)OCc1ccccc1	inconclusive: -22.3%	–
COc1cc(-c2nc(CN3CCCCC3CCNC(C)=O)c(C)o2)ccc1F (configuration not stated)	inconclusive: -9.47%	–
Cc1ccc(S(=O)(=O)CCC(=O)OCn2nnc3ccccc3c2=O)cc1	inconclusive: -21%	–
COc1nc(-c2ccc(C)cc2)ccc1-c1noc(-c2cccnc2)n1	inconclusive: 14.2%	–
CCCCn1c(N)c(N(CC(C)C)C(=O)c2cccc(S(=O)(=O)N3CCN(C)CC3)c2)c(=O)[nH]c1=O	inconclusive: -4.23%	–
Cc1ccc2nc(N3CCN(c4ccccc4F)CC3)c(C=O)c(=O)n2c1	inconclusive: 14%	–
O=C(NCc1ccc2c(c1)OCO2)c1nc(S(=O)(=O)Cc2ccccc2F)ncc1Cl	–	inconclusive: 4.11 µM [falling, full curve]
CCCCOc1ccccc1NC(=O)CC1Nc2ccccc2NC1=O (configuration not stated)	inconclusive: -32.4%	–
COc1cc(NC(=O)Cn2ncc(Cl)c(Cl)c2=O)c(C)cc1[N+](=O)[O-]	inconclusive: 22.2%	–
CN1C(=O)N(CC(=O)N2CCN(S(=O)(=O)/C=C/c3ccccc3)CC2)C(=O)C12CCCCC2	–	inconclusive: 29.1 µM [activator, single point]
O=C(/C=C/c1ccc([N+](=O)[O-])cc1)N1CCN(Cc2ccccc2)CC1	inconclusive: 31.1%	–
CCCNC(=O)c1ccc(N2CCC3(CC2)CC(c2cccc(Br)c2)=NO3)c(NC(=O)c2c(Cl)cccc2Cl)c1	–	inconclusive: 29.1 µM [activator, partial curve, poor fit]
CCOC(=O)c1cc(C#N)c(N2CCCC2)nc1-c1ccccc1	inconclusive: -33.4%	–
CC1=NN(Cc2ccccc2)C(=O)C1	inactive	–
Cc1ccc2c(C)c(C(=O)N(C)Cc3ccncn3)oc2c1C	inconclusive: 19.5%	–

2 entries picked at random from the list so far:
Structure (SMILES)	lipid storage change, negative = inhibition	Potency
O=C(NCc1ccc2c(c1)OCO2)c1nc(S(=O)(=O)Cc2ccccc2F)ncc1Cl	–	inconclusive: 4.11 µM [falling, full curve]
CCOc1cc(C(=O)N2CCC(CC3CC(c4ccc(Cl)cc4)=NO3)(C(=O)NCC3CCCCC3)CC2)cc(OCC)c1OCC (configuration not stated)	–	inconclusive: 23.1 µM [falling, single point]

Another view of 2 compounds above.
O=C(NCc1ccccn1)C(=O)NCc1ccccn1
  Potency: inconclusive: 0.461 µM [falling, single point]
O=C(Nc1ccc(NC(=O)C2CC2)nc1)c1ccccn1
  lipid storage change, negative = inhibition: inconclusive: -7.45%

Additional results follow:

Structure (SMILES)	lipid storage change, negative = inhibition	Potency
O=C(c1ccco1)N1CCN(C(=O)c2cc(-c3ccccc3)nc3ccccc23)CC1	inconclusive: -11.7%	–
CCN(CC)CCCC1(CN)OCCc2ccccc21 (configuration not stated)	inconclusive: -23.2%	–
CC(=O)c1ccc(Oc2cc(C)nc(NCc3ccccc3)n2)cc1	–	inconclusive: 0.731 µM [falling, partial curve]
Cc1ccc(NC(=O)C2CCCN(C(=O)Nc3ccc(F)cc3)C2)cc1 (configuration not stated)	inconclusive: -34.5%	–
CCOc1cccc(-c2c(C(=O)N/N=C(\C)c3cccs3)nnn2-c2nonc2N)c1	–	inconclusive: 29.1 µM [activator, single point]
Cc1ccccc1NC(=O)OCc1ccccc1	–	inconclusive: 29.1 µM [activator, single point]
Cn1c(=O)oc2cc(S(=O)(=O)N3CCC(C(=O)NCc4ccc(F)cc4)CC3)ccc21	inconclusive: -63.1%	–
Clc1ccccc1Nc1c2c(nc3ncnn13)CCC2	inconclusive: 12.4%	–
O=C(COC(=O)C1CC(=O)N(Cc2ccccc2)C1)Nc1ccc(Cl)cc1F (configuration not stated)	–	inconclusive: 0.517 µM [falling, partial curve]
COc1ccc(CCC(=O)NCCS(=O)(=O)N2CCN(c3ccc(F)cc3)CC2)cc1	–	inconclusive: 23.1 µM [falling, single point]
CCOc1ccc(NC(=O)CN(C)C(=O)Cc2sc(C)nc2-c2ccc(F)cc2)cc1OCC	inconclusive: -14.7%	–
COc1ccc(-c2nc(-n3c(C)c(C(C)=O)c(C(C)=O)c3C)sc2C)cc1	inconclusive: 21.6%	–
Cc1ccc(N2CCN(C(=O)c3ccccc3NC(=O)/C=C\C(=O)O)CC2)cc1	inconclusive: 38.2%	–
Cc1ccc(N2C(=O)C3C4C=CC(CC4)C3C2=O)cc1Br (configuration not stated)	inconclusive: -58.5%	–
Cc1ccc(NC(=O)N(Cc2cccs2)Cc2cc3cc4c(cc3[nH]c2=O)OCO4)cc1	inconclusive: 9.92%	–
CCCCN(C)CCNC(=O)c1ccc2c(c1)NC(=O)C(N1CCCCC1)S2 (configuration not stated)	inconclusive: 99.5%	–
CC(=O)C1=C(O)C(=O)N(CCCN2CCOCC2)C1c1ccccc1[N+](=O)[O-] (configuration not stated)	inconclusive: 14.3%	–
O=C(Cn1cnc2ccc(Cl)cc2c1=O)c1cccs1	–	inconclusive: 1.84 µM [falling, full curve, poor fit]
COc1ccc(CCNS(=O)(=O)CCNC(=O)c2ccccc2)cc1	–	inconclusive: 10.3 µM [activator, partial curve]
Cn1ncc([N+](=O)[O-])c1C(=O)Nc1ccc(Cl)cc1	inconclusive: 12.7%	–
O=C(NC1(C(F)(F)F)N=C(c2ccccc2)NC1=O)c1ccc(Cl)cc1Cl (configuration not stated)	inconclusive: -23.2%	–
CCCCn1cc2c(c1-c1cccc(C)c1)c(=O)n(C)c(=O)n2C	inconclusive: 23.8%	–
Cc1cc(C)nc(NS(=O)(=O)c2ccc(NC(=O)Cc3ccccc3F)cc2)n1	–	inconclusive: 0.13 µM [activator, partial curve, poor fit]
O=C(Nc1ccc(O)c2c(=O)cc(-c3ccccc3Cl)oc12)c1cccc(Cl)c1	inconclusive: -26.4%	–
